Only a part is listed here, and it is no random draw. At the low end of the ranking the order means little.
Biological target: SPI1 (UniProt P17947)
Test: DAPPL (digital affinity profiling via proximity ligation, sequencing)
Settings: 10 mM Tris-HCl pH 7.5, 50 mM NaCl, 1 mM DTT, 4% glycerol, room temperature, 30 min; GST-TFs on glutathione beads, 16-mer random dsDNA library, 0.1% …; high values mean tight binding; double strand, one strand shown; scale: fold enrichment (6-mer frequency, TF over GST control)

Sequence | binding signal
GCAATG | 0.99
TAAGGC | 0.856
ACCCGA | 0.945
GCCAGA | 0.646
ACAAAA | 1.22
TAGCGC | 0.918
CATAAG | 0.937
GACTAT | 0.929
GAAGTC | 1.51
GGCCTG | 0.867
TACCTT | 1.33
AGGATG | 0.933
TCGAGT | 0.947
GTAATG | 0.996
CGGCTG | 0.932
GCCCTG | 0.865
ACGTCC | 1.49
ATCGCG | 0.816
TCAAGC | 0.923
GCCGCC | 1.13

Sequence | binding signal
GTCTAA | 1.08
GCGGCA | 0.804
TTATCC | 1.41
CGCACA | 0.998
TCAAAC | 1.16
GCAATA | 0.959
ATAGTC | 0.907
CCCGTA | 1.19
TCTTTC | 1.51
GATTAG | 0.824
TCGTTA | 0.941
TGCGTC | 0.978
TCCGTC | 1.28
GATAGT | 0.751
CCCGGT | 0.911
TGTTGC | 1.33
TCAAGG | 0.988
AATCCA | 0.992
ACACCA | 0.973

Some of the entries above, reformatted:
ATAGTC
  binding signal = 0.907
GATAGT
  binding signal = 0.751
